PubChem BioAssay AID493014 (National Center for Advancing Translational Sciences (NCATS), 2011)
Hit rate of the full screen: of about 340,000 compounds, about 170 (0.05%) were called active. Inconclusive results, whose numbers are uncertain, are shown with a selection of clear calls. The call rests on the fitted dose curve; in most records, active means well fitted inhibition curve with a large enough effect in the signal ratio, with a control signal flat (not every such curve was filed as active); inconclusive means small, poorly fitted or top-dose-only effect, or effect the other way, or a change in a side signal; inactive means flat fitted curve, though single readings scatter; the % refers to the signal ratio. Potencies of inconclusive entries are doubtful fits and often do not repeat.

Assay: qHTS Assay to Find Inhibitors of Chronic Active B-Cell Receptor Signaling;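 on activity change, negative = inhibition: plate controls were basal doxycycline-induced cells for no effect and cells given 10 µM MG132 for full effect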
Conditions: ABC-DLBCL IkBa-CBG/CBR reporter, luminescence ratio (green luciferase fused to IkBa over red control in TMD8 lymphoma cells), 4 h; activity change, negative = inhibition: at 46.1 µM (top of the series)
Outline: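 Concentration-response series (up to 46 uM) were applied to TMD8 dual-reporter cells for 4 h at 37C with doxycycline. Green/red ratio, after filter-overlap correction, defined %Activity; red signal alone was normalised to basal cells and zero luminescence.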
Potency means the concentration at half of the fitted maximal effect.

| Compound | activity change, negative = inhibition | Potency |
| --- | --- | --- |
| CCOc1ccc(C(=O)NC(=S)Nc2ccccc2N2CCC(C)CC2)cc1[N+](=O)[O-] | inconclusive: -5.27% | – |
| COc1cc2c(cc1OC)CN(c1ccc(-c3ccccc3OC)nn1)CC2 | – | inconclusive: 12.6 µM [falling, partial curve] |
| Cc1cc(C)c2nc(SCCC#N)nc(C)c2c1 | inconclusive: -1.44% | – |
| O=C(c1cc2cc(Cl)ccc2[nH]1)N1CCN(c2ccc(F)cc2)CC1 | inconclusive: 0.0543% | – |
| CC1CCN(C(=O)COC(=O)c2ccc3c(c2)OCO3)CC1 | inactive | – |
| COCCN(C(=O)Cc1cccs1)C(C(=O)NC1CCCC1)c1ccc(OC)c(OC)c1 (stereo not drawn) | inconclusive: 20.2% | – |
| CCOC(=O)c1cc(NC(=O)c2ccccc2)c(=O)n2c1oc1ccccc12 | inactive | – |
| OCCCNc1nc(-c2ccccc2)nc2c1oc1ccccc12 | – | inconclusive: 5.01 µM [rising, partial curve, poor fit] |
| CCC(C)NC(=O)CN(C)S(=O)(=O)c1ccc2c(c1)c(=O)n(C)c(=O)n2C (stereo not drawn) | inconclusive: 2.99% | – |
| NC(=O)C1CCN(C(=O)c2ccc3c(=O)n(Cc4ccco4)c(SCc4ccc([N+](=O)[O-])cc4)nc3c2)CC1 | inactive | – |
| COc1ccc(N2C(=O)CC(N3CCN(c4ccccc4F)CC3)C2=O)cc1 (stereo not drawn) | inactive | – |
| C#CCOCCOCCOCCNc1nc(N2CCN(C(=O)CCCCCCCCCCNC(=O)Cn3cc(CCCCCN)nn3)CC2)nc(N2CCN(C(=O)CCCCCCCCCCNC(=O)[C@@H](CCSC)n3cc(CCO)nn3)CC2)n1 | inconclusive: 6.75% | – |
| CC(C)OC(=O)c1ccc(NC(=O)CSc2nc3ncccc3[nH]2)cc1 | inactive | – |
| Cc1ccc(OCCCCNC2CCCC(C)C2C)c(C)c1 (stereo not drawn) | inactive | – |
| Cc1ccc(Cl)cc1NC(=S)N(Cc1ccco1)C(C)c1cccs1 (stereo not drawn) | inconclusive: 1.67% | – |
| CCOCCN(C(=O)COC)c1cccc(OC)c1 | inconclusive: 5.35% | – |
| Cc1ccnc(-n2sc3ccccc3c2=O)n1 | – | inconclusive: 23.1 µM [falling, single point] |
| COc1ccc(CN(C)C(=O)CCCNC(=O)c2ccc(Cl)cc2)cc1 | inconclusive: -14.4% | – |
| CCCCCCc1ccc(O)cc1O | inconclusive: 16.1% | – |
| Cc1ccc(NC(=O)Cn2ncc(Cl)c(Cl)c2=O)cc1S(=O)(=O)N1CCCCC1 | inconclusive: 19% | – |
| O=[N+]([O-])c1ccc(S(=O)(=O)Nc2ccccn2)cc1 | inactive | – |
| CCCCn1nnc(NC(=O)c2ccc(-c3ccccc3[N+](=O)[O-])o2)n1 | inactive | – |
| O=C(Cc1cccs1)OCC(=O)c1ccco1 | inconclusive: 1.44% | – |
| CCN1CCN(CCNC(=O)c2ccc3c(c2)N(Cc2ccc(F)cc2)C(=O)/C(=C/c2ccccc2)S3)CC1 | – | inconclusive: 11.2 µM [falling, partial curve] |
| CC1(C)NC(=O)N(c2ccc([N+](=O)[O-])c(C(F)(F)F)c2)C1=O | inactive | – |
| O=C(c1ccc(Cl)cc1)c1cnc(Nc2ccccc2Cl)s1 | – | inconclusive: 10 µM [falling, partial curve, poor fit] |

| Compound | activity change, negative = inhibition | Potency |
| --- | --- | --- |
| Cc1ccc(N(C(=O)CS(=O)CC(=O)Nc2ccc(F)cc2)C(C(=O)NC2CCCCC2)c2ccco2)cc1 (stereo not drawn) | – | inconclusive: 20.6 µM [falling, single point] |
| Cc1cc[n+](CC[n+]2ccc(C)cc2)cc1 | inactive | – |
| Cc1noc(NS(=O)(=O)c2ccc(NC(=O)CSc3nnc(-c4ccccc4)n3C3CCCCC3)cc2)c1C | inconclusive: 0.634% | – |
| COc1ccc(/C=N\NC(=O)c2c(C)nc3ccc(Br)cn23)cc1 | – | inconclusive: 7.31 µM [falling, partial curve, poor fit] |
| O=C(O)c1ccc(-c2nnc(-c3ccccc3)o2)cc1 | – | inconclusive: 2.51 µM [falling, partial curve, poor fit] |
| COc1cccc(CNC(=O)Cn2cc([N+](=O)[O-])cn2)c1 | inconclusive: 5.24% | – |
| COc1cc(C(=O)c2nccc3cc(OC)c(OC)cc23)c([N+](=O)[O-])cc1OC | – | inconclusive: 17.8 µM [falling, partial curve, poor fit] |
| Cc1cccc(C)c1OCC(=O)Nn1c(COc2ccccc2)nc2ccccc2c1=O | – | inconclusive: 7.31 µM [falling, partial curve] |
| O=C(Nc1ccncc1)c1cn(-c2ccccc2)nc1-c1cccs1 | – | inconclusive: 23.1 µM [cytotoxic, single point] |
| CCOc1ccccc1NC(=O)NCCc1c[nH]c2ccccc12 | – | inconclusive: 14.1 µM [falling, partial curve] |
| CC(=O)c1cccc(NC(=O)N(c2ccccc2)c2ccccc2)c1 | inactive | – |
| COc1ccc(NC(=O)NCCN2CCCCC2)cc1 | inconclusive: 2.78% | – |
| N#CC(C#N)C(c1ccsc1)c1c(-c2ccccc2)[nH][nH]c1=O (stereo not drawn) | inconclusive: -1.6% | – |
| Cc1ccc(-n2cccc2/C=C2\C(=N)N3N=C(c4ccco4)SC3=NC2=O)cc1 | – | inconclusive: 1.58 µM [falling, full curve] |
| CN(CCNC(=O)CCCOc1cc(=O)n(C)c2ccccc12)Cc1ccccc1 | – | inconclusive: 12.6 µM [falling, single point] |
| COc1ccc(CCNC(=O)C(=O)NCC(c2cccs2)S(=O)(=O)c2ccc(C)cc2)cc1 (stereo not drawn) | inconclusive: -4.48% | – |
| O=C(CNC(=O)c1ccc(Cl)c([N+](=O)[O-])c1)OC1CCCCC1=O (stereo not drawn) | – | inconclusive: 25.9 µM [falling, single point] |
| CN(C)C=Nc1nc2ccccc2nc1N1CCCC1 | inconclusive: -1.77% | – |
| Cc1ccc2nc(NS(=O)(=O)c3cn(C)nc3C)sc2c1 | inconclusive: -3.11% | – |
| COc1ccc(C(=O)Nc2cccc(C)c2)cc1 | – | inconclusive: 17.8 µM [falling, partial curve] |
| C=CCN(c1nc(C)c(Br)c(OC)n1)S(=O)(=O)c1ccc(C)cc1 | inconclusive: 1.99% | – |
| COc1cc2c(cc1NC(=S)Nc1cccc3ccccc13)oc1ccccc12 | inconclusive: 0.34% | – |
| O=C(Nc1ccc(F)cc1)N1CCN(c2ncccn2)CC1 | – | inconclusive: 6.31 µM [falling, partial curve, poor fit] |
| O=C(CC1C(=O)N(c2ccc(Cl)cc2)C(=S)N1CCc1ccncc1)Nc1ccc(F)cc1 (stereo not drawn) | inconclusive: -28% | – |
| CC(CN1CCCC1)OC(=O)C(c1ccccc1)c1ccccc1 (stereo not drawn) | inactive | – |
| CC(C)(C(N)=O)N1CCN(c2ncc(C(F)(F)F)cc2Cl)CC1 | – | inconclusive: 0.103 µM [falling, full curve, poor fit] |

| Compound | activity change, negative = inhibition | Potency |
| --- | --- | --- |
| CC1=CCC(C(=O)O)C(C(=O)Nc2ccc(-c3nc4ccc(C)cc4s3)cc2)C1 (stereo not drawn) | inconclusive: 11.8% | – |
| COc1cccc(N=Cc2c[nH][nH]c2=O)c1 | inactive | – |
| CC1CCc2nn(CC(=O)N3CCc4ccccc43)cc2C1 (stereo not drawn) | inconclusive: -17.5% | – |
| Brc1ccc(OCCOCCN2CCOCC2)cc1 | inconclusive: 14.9% | – |
| COc1cc(/C=C2\SC(N)=NC2=O)cc(Cl)c1O | inactive | – |
| O=C(CSc1nnc(SCc2ccc(F)cc2)s1)Nc1ccc(C(=O)O)cc1 | – | inconclusive: 31.6 µM [falling, single point] |
| CCc1c(C)[nH]c(C(=O)OCc2ccccc2)c1C | – | inconclusive: 1.41 µM [rising, full curve, poor fit] |
| Cc1ccc(-c2nc3cnccn3c2Nc2ccc3c(c2)OCO3)cc1 | – | inconclusive: 28.2 µM [falling, partial curve, poor fit] |
| COc1ccc(C2NC(=O)CCC2[N+](=O)[O-])cc1OC (stereo not drawn) | inconclusive: 2.38% | – |
| CC1CN(c2cc(-c3ccccc3)c3ccccc3n2)CC(C)O1 (stereo not drawn) | inconclusive: 29.2% | – |
| Cc1ccn2c(NC(=O)c3ccccc3)c(-c3ccccc3)nc2c1 | inconclusive: 8.02% | – |
| CCOC(=O)c1ccc(NC(=O)CSc2cc(=O)n(CC)c3ccccc23)cc1 | inactive | – |
| Cc1cccc(CS(=O)(=O)c2ncc(Cl)c(C(=O)Nc3c(C)cccc3C)n2)c1 | inconclusive: 12.3% | – |
| COc1cc([N+](=O)[O-])ccc1NC(=O)CSc1nccn1C | inconclusive: -0.384% | – |
| CCCCC(CCC(=O)Nc1cccc([N+](=O)[O-])c1)C(=O)O (stereo not drawn) | inconclusive: 3.15% | – |
| CC(CC(=O)Nc1ccc2c(c1)OCCO2)c1ccccc1 (stereo not drawn) | inconclusive: -1.85% | – |
| Cc1ccc(Cl)cc1NC(=O)c1oc2ccc(S(=O)(=O)N(C)C3CCCCC3)cc2c1C | inactive | – |
| CCOC(=O)Cc1csc(NC(=O)CSc2nnc(C3CC3)n2C)n1 | inconclusive: -0.181% | – |
| NC(=O)c1c(NC(=O)CSc2nnc(-c3ccco3)n2-c2ccccc2)sc2c1CCC2 | – | inconclusive: 35.5 µM [falling, single point] |
| Cc1cccc2cc(CN(CC3CCCO3)S(=O)(=O)c3ccccc3)c(=O)[nH]c12 (stereo not drawn) | – | inconclusive: 5.62 µM [falling, partial curve] |
| CCOc1ccccc1N1CCN(c2nc(N)c(C#N)c(CC#N)c2C#N)CC1 | inconclusive: -2.37% | – |
| Cc1ccc(NC(=O)C2CCCN(S(=O)(=O)c3cccc4cccnc34)C2)cc1 (stereo not drawn) | inactive | – |
| Cc1ccc(S(=O)(=O)NC(=O)Nc2cc(C)no2)cc1 | inconclusive: 1.4% | – |
| COc1ccc(C(=O)OCc2nc(N)nc(Nc3ccccc3C)n2)cc1OC | – | inconclusive: 14.1 µM [falling, single point] |
| CCCCCCOc1ccc(OC(=O)c2ccncc2)cc1 | inactive | – |
| Cc1n[nH]c(C)c1CCN(C)C(=O)C1CCC(=O)N(CC2CCCCC2)C1 (stereo not drawn) | inactive | – |

Exported with tabs: entries from further up
Compound	activity change, negative = inhibition	Potency
Brc1ccc(OCCOCCN2CCOCC2)cc1	inconclusive: 14.9%	–
COc1cc(/C=C2\SC(N)=NC2=O)cc(Cl)c1O	inactive	–
O=C(CSc1nnc(SCc2ccc(F)cc2)s1)Nc1ccc(C(=O)O)cc1	–	inconclusive: 31.6 µM [falling, single point]
CCc1c(C)[nH]c(C(=O)OCc2ccccc2)c1C	–	inconclusive: 1.41 µM [rising, full curve, poor fit]
Cc1ccc(-c2nc3cnccn3c2Nc2ccc3c(c2)OCO3)cc1	–	inconclusive: 28.2 µM [falling, partial curve, poor fit]
COc1ccc(C2NC(=O)CCC2[N+](=O)[O-])cc1OC (stereo not drawn)	inconclusive: 2.38%	–
Cc1ccn2c(NC(=O)c3ccccc3)c(-c3ccccc3)nc2c1	inconclusive: 8.02%	–
CCOC(=O)c1ccc(NC(=O)CSc2cc(=O)n(CC)c3ccccc23)cc1	inactive	–
Cc1cccc(CS(=O)(=O)c2ncc(Cl)c(C(=O)Nc3c(C)cccc3C)n2)c1	inconclusive: 12.3%	–
COc1cc([N+](=O)[O-])ccc1NC(=O)CSc1nccn1C	inconclusive: -0.384%	–
Cc1ccc(Cl)cc1NC(=O)c1oc2ccc(S(=O)(=O)N(C)C3CCCCC3)cc2c1C	inactive	–
NC(=O)c1c(NC(=O)CSc2nnc(-c3ccco3)n2-c2ccccc2)sc2c1CCC2	–	inconclusive: 35.5 µM [falling, single point]
Cc1cccc2cc(CN(CC3CCCO3)S(=O)(=O)c3ccccc3)c(=O)[nH]c12 (stereo not drawn)	–	inconclusive: 5.62 µM [falling, partial curve]
CCOc1ccccc1N1CCN(c2nc(N)c(C#N)c(CC#N)c2C#N)CC1	inconclusive: -2.37%	–
Cc1ccc(NC(=O)C2CCCN(S(=O)(=O)c3cccc4cccnc34)C2)cc1 (stereo not drawn)	inactive	–
COc1ccc(C(=O)OCc2nc(N)nc(Nc3ccccc3C)n2)cc1OC	–	inconclusive: 14.1 µM [falling, single point]
Cc1n[nH]c(C)c1CCN(C)C(=O)C1CCC(=O)N(CC2CCCCC2)C1 (stereo not drawn)	inactive	–
